Experimental data published in patent US20130345163A1, “BIOLOGICAL MARKER FOR INFLAMMATION” (CAN-FITE BIOPHARMA LTD., priority 2004, published 2013).
Some entries share one result that the patent states for a list of compounds. For at least one compound, name, drawing or mass did not settle the structure.

Tested on: Adjuvant Induced Arthritis (AIA) rats
Experiment: Adjuvant induced arthritis (AIA) model in rats, clinical disease activity score
Assay type: in vivo, rat
Conditions: days after immunization, disease peaked on the same days
Method: Female Lewis rats, aged 8-12 weeks were obtained from Harlan Laboratories (Jerusalem, Israel). Rats were maintained on a standardized pelleted diet and supplied with tap water. Experiments were performed in accordance with the guidelines established by the Institutional Animal Care and Use Committee at Can-Fite BioPharma, Petah Tikva, Israel. The rats were injected subcutaneously (SC) at the tail base with 100 μl of suspension composed of incomplete Freund's adjuvant (IFA) with 10 mg/ml heat killed Mycobacterium tuberculosis, (Mt) H37Ra, (Difco, Detroit, USA). Each group contained 10 animals.
Treatment with IB-MECA (10 μg/kg) was initiated on day 14 after vaccination and was orally administered by gavage, twice daily. Another group was treated with Methotrexate (MTX) (1.5 mg/kg) intraperitoneally every 3 days, starting on day 14th after vaccination. The control group in each experiment received vehicle only (DMSO in a dilution corresponding to that of the drugs).
Clinical Disease Activity Score was assessed as follows: the animals were inspected every second day for clinical arthritis. […] The clinical score was calculated by adding the four individual legs' score. The inflammatory intensity was also determined in accordance with the increase in the rat hind paw's diameter, measured by caliper (Mitotoyo, Tokyo, Japan).

Q: How did the “days on which maximal effect was seen” value turn out when `CNC(=O)[C@H]1O[C@@H](n2cnc3c(NCc4cccc(I)c4)ncnc32)[C@H](O)[C@@H]1O` [CF101, N^6-(3-iodobenzyl)-adenosine-5′-N-methyluronamide] was run?
A: The value was 21 to 28 days.

Q: With `CN(Cc1cnc2nc(N)nc(N)c2n1)c1ccc(C(=O)N[C@@H](CCC(=O)O)C(=O)O)cc1` [methotrexate, reference compound] as the molecule, how does the “days on which maximal effect was seen” value read?
A: The value was 21 to 28 days.
